Assay results from PMC10190289.

The chains behind the UniProt entries cited, without tags or fusion partners. Where a name states a change or a piece, a line headed by the entry shows the natural chain unless it says otherwise.
UniProt Q13705: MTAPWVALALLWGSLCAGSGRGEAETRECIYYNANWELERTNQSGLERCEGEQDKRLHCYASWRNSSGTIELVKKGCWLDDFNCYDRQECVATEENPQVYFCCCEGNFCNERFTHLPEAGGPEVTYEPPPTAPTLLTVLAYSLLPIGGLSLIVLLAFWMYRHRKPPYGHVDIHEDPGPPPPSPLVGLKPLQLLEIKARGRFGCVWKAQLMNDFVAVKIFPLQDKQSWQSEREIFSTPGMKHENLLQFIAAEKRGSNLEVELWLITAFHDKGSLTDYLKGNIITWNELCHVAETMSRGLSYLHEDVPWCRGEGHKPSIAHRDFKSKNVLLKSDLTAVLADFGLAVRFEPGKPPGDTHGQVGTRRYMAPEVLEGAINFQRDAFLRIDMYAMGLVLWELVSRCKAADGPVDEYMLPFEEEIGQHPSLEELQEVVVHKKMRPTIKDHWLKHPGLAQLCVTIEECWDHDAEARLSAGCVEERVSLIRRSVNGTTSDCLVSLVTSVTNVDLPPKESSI

Key:
Assay in all cases: co-IP; chondrocytes transfected with p3XFLAG-CMV-7.1-ACVR2B or muACVR2B for 36 h, activin A-overexpression conditions; lysis buffer 150 mM NaCl, 1% NP-40, 50 mM Tris, 0.2% SDS, 5 mM NaF; anti-FLAG overnight at 4 °C, protein A/G plus beads 6 h at 4 °C; blot for NOX4
[1] = molecular target: muACVR2B Mu2 (G399 changed to K399) (UniProt Q13705)
[2] = molecular target: muACVR2B Mu1 (G373 changed to K373) (UniProt Q13705)
[3] = molecular target: muACVR2B Mu3 (Q401 changed to K401) (UniProt Q13705)

Measured: binding

B1: NADPH oxidase 4 (Nox4), endogenous (protein, UniProt Q9JHI8 1-578)
chain: MAVSWRSWLANEGVKHLCLLIWLSLNVLLFWKTFLLYNQGPEYYYIHQMLGLGLCLSRASASVLNLNCSLILLPMCRTVLAYLRGSQKVPSRRTRRLLDKSKTLHITCGVTICIFSGVHVAAHLVNALNFSVNYSEDFLELNAARYQNEDPRKLLFTTIPGLTGVCMVVVLFLMVTASTYAIRVSNYDIFWYTHNLFFVFYMLLLLHVSGGLLKYQTNVDTHPPGCISLNQTSSQNMSIPDYVSEHFHGSLPRGFSKLEDRYQKTLVKICLEEPKFQAHFPQTWIWISGPLCLYCAERLYRCIRSNKPVTIISVINHPSDVMELRMIKENFKARPGQYIILHCPSVSALENHPFTLTMCPTETKATFGVHFKVVGDWTERFRDLLLPPSSQDSEILPFIHSRNYPKLYIDGPFGSPFEESLNYEVSLCVAGGIGVTPFASILNTLLDDWKPYKLRRLYFIWVCRDIQSFQWFADLLCVLHNKFWQENRPDFVNIQLYLSQTDGIQKIIGEKYHTLNSRLFIGRPRWKLLFDEIAKCNRGKTVGVFCCGPSSISKTLHSLSNRNNSYGTKFEYNKESFS
no binding: all assays above

These are yes or no findings as the source states them, for the method shown. In cells and extracts the contact can be indirect.
